Experimental data reported in PMC7221892, “In Vitro and in Vivo Activity of mTOR Kinase and PI3K Inhibitors Against Leishmania donovani and Trypanosoma brucei” (Molecules, 2020).

Test: Host cell cytotoxicity (CC50) in infected THP-1 cells, dose-dilution assay
Settings: human
Description: PMA-treated THP-1 human monocytic cells were seeded at 0.8 × 10^4 cells per well in a 384-well culture plate (Greiner Bio-One, Kremsmünster, Austria) in RPMI-1640 complete medium supplemented with 10% FBS. After 48 h of incubation at 37 °C in the presence of 5% CO2, the promastigotes of L. donovani that were incubated with lectin for 30 min at 28 °C were added to the cells at a parasite to cell ratio of 20:1. […] The negative control consisted of THP-1 infected with the parasite with only 0.5% DMSO. After 72 h, the cells that were infected and treated with the drug were washed with serum-free RPMI-1640 medium. The cells and parasites were stained using 5 μM DRAQ5 and 4% PFA. The images were acquired based on reading using an Operetta® automated microscope (PerkinElmer, Inc., Waltham, MA 02451 USA). They were further analyzed using Columbus^TM (PerkinElmer, Inc. Waltham, MA, USA) software to quantify parasite numbers, host cell numbers, and infection ratios. In brief, large-sized nucleus of host cells was first detected using Draq-5 (Thermo Fisher, Rockford, IL, USA) signal and the host cell boundary masking was performed using the low-intensity signals from cytosols (additional feature of Draq-5). […]
All of the half maximal effective concentrations (EC50) and the half maximal cytotoxic concentrations (CC50) values were calculated using two independent experiments. […]

## CC(C)n1nc(-c2cc3cc(O)ccc3[nH]2)c2c(N)ncnc21 [Torkinib]
  CC50 at 72 h: 33.4 ± 1.4 µM
